Assay results from EPA's aquatic toxicity sets.

Experiments:
[1] = test system: Pimephales promelas; assay: 96 h LC50 (-log10 mol/L); higher = more toxic
[2] = test system: Daphnia magna; assay: 48 h LC50 (-log10 mol/L); higher = more toxic

SMILES	96 h LC50 (-log10 mol/L) [1]	48 h LC50 (-log10 mol/L) [2]
O=C(c1ccccc1)c1ccccc1	4.09	
O=C(O)C1=C[C@@H](O)[C@@H](O)[C@H](O)C1		3.18
